## Drug screen on melanoma cell lines: apoptosis marker

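Human melanoma cell lines in 1,536-well plates were treated with two drugs together for 72 h, then fixed, stained and imaged. Values are the share of nuclei positive for cleaved PARP as a percentage of the same share in the DMSO control: 100 is the control level, higher means more apoptosis. Concentrations were fixed for each drug; these are the higher of two levels. These are primary screening values without error estimates. Basal and induced levels differ widely between cell lines.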 An unselected part of the screen is shown. A dash means that no value is listed here.

Drugs:
YM155 (0.002 µM): COCC[n+]1c2c(n(Cc3cnccn3)c1C)C(=O)c1ccccc1C2=O
perifosine (2 µM): CCCCCCCCCCCCCCCCCCOP(=O)([O-])OC1CC[N+](C)(C)CC1
SU6656 (2 µM): CN(C)S(=O)(=O)c1ccc2c(c1)/C(=C/c1cc3c([nH]1)CCCC3)C(=O)N2
pazopanib (2 µM): Cc1ccc(Nc2nccc(N(C)c3ccc4c(C)n(C)nc4c3)n2)cc1S(N)(=O)=O
palbociclib (0.2 µM): CC(=O)c1c(C)c2cnc(Nc3ccc(N4CCNCC4)cn3)nc2n(C2CCCC2)c1=O
fludarabine (1 µM): Nc1nc(F)nc2c1ncn2[C@@H]1O[C@H](CO)[C@@H](O)[C@@H]1O
L-779450 (1 µM): Oc1cc(-c2nc(-c3ccccc3)[nH]c2-c2ccncc2)ccc1Cl
darinaparsin (2 µM): C[As](C)SC[C@H](NC(=O)CC[C@H](N)C(=O)O)C(=O)NCC(=O)O
ruxolitinib (5 µM): N#CC[C@H](C1CCCC1)n1cc(-c2ncnc3[nH]ccc23)cn1
AZD7762 (0.1 µM): NC(=O)Nc1cc(-c2cccc(F)c2)sc1C(=O)N[C@H]1CCCNC1
temozolomide (10 µM): Cn1nnc2c(C(N)=O)ncn2c1=O
MK-2206 (2 µM): NC1(c2ccc(-c3nc4ccn5c(=O)[nH]nc5c4cc3-c3ccccc3)cc2)CCC1
LFM-A13 (10 µM): C/C(O)=C(\C#N)C(=O)Nc1cc(Br)ccc1Br
tamatinib (2 µM): COc1cc(Nc2ncc(F)c(Nc3ccc4c(n3)NC(=O)C(C)(C)O4)n2)cc(OC)c1OC

| Combination | SK-MEL-2 | WM1716 | 501mel | MeWo | MEL-HO | LOX IMVI | C32 | LB2518-MEL | WM115 | COLO 792 | WM3526 | WM3619 | A375 | IST-MEL1 | MZ2-MEL |
|---|---|---|---|---|---|---|---|---|---|---|---|---|---|---|---|
| YM155 + temozolomide | 367 | 1200 | - | 937 | 160 | 204 | 131 | 583 | 235 | 355 | 1690 | 136 | 78.9 | 69.9 | 573 |
| palbociclib + ruxolitinib | 33.5 | 110 | - | 118 | 176 | 133 | 473 | 139 | 194 | 165 | 219 | 173 | 44.2 | 117 | 36.6 |
| L-779450 + tamatinib | 2120 | 301 | 147 | 133 | 144 | 377 | 196 | 99.2 | 1210 | 330 | 448 | 157 | 386 | 135 | 69.2 |
| pazopanib + MK-2206 | 17.5 | 34.3 | - | 25.1 | 137 | 111 | 57.8 | 128 | 102 | 118 | 147 | 104 | 38.8 | 87.3 | 86.6 |
| LFM-A13 + temozolomide | 117 | 23.0 | 36.8 | 64.9 | 52.2 | 75.7 | 90.8 | 31.8 | 178 | 214 | 111 | 138 | 81.3 | 107 | 325 |
| fludarabine + AZD7762 | 1220 | 312 | - | 447 | 171 | 42.8 | 1140 | 184 | 540 | 1390 | 9260 | 741 | - | 193 | 123 |
| AZD7762 + temozolomide | 68.9 | 1220 | - | 193 | 71.6 | 72.6 | 774 | 78.9 | 439 | 252 | 377 | 426 | - | 85.6 | 83.7 |
| L-779450 + palbociclib | 305 | 188 | 166 | 165 | 208 | 114 | 730 | 224 | 165 | 171 | 237 | 196 | 257 | 269 | 15.2 |
| L-779450 + MK-2206 | 968 | 140 | 43.7 | 260 | 198 | 142 | 670 | 34.6 | 370 | 27.5 | 644 | 107 | 119 | 103 | 80.3 |
| darinaparsin + tamatinib | 122 | 441 | - | 163 | 357 | 101 | 446 | 441 | 135 | 143 | 242 | 127 | - | 142 | 170 |
| perifosine + AZD7762 | 139 | 253 | - | 183 | 66.0 | 133 | 285 | 75.5 | 85.4 | 283 | 378 | 386 | - | 132 | 47.9 |
| MK-2206 + tamatinib | 123 | 2360 | - | 302 | 60.4 | 173 | 203 | 178 | 510 | 450 | 290 | 283 | - | 43.1 | 50.1 |
| darinaparsin + temozolomide | 96.7 | 247 | - | 188 | 169 | 84.5 | 104 | 122 | 98.4 | 57.9 | 234 | 122 | 78.1 | 143 | 148 |
| palbociclib + LFM-A13 | 79.8 | 71.1 | 51.6 | 77.1 | 175 | 128 | 104 | 113 | 209 | 172 | 122 | 106 | 355 | 118 | 52.4 |
| perifosine + MK-2206 | 64.2 | 30.6 | - | 35.1 | 152 | 133 | 66.6 | 82.0 | 304 | 185 | 112 | 121 | 12.6 | 72.2 | 89.6 |
| fludarabine + MK-2206 | 1210 | 68.4 | - | 94.2 | 82.3 | 167 | 86.7 | - | 112 | 332 | 2670 | 213 | 1110 | 102 | - |
| tamatinib + perifosine | 368 | 215 | - | 51.3 | 218 | 223 | 107 | 1740 | 138 | 463 | 151 | 104 | - | 102 | 797 |
| YM155 + darinaparsin | 507 | 138 | - | 535 | 126 | 125 | 152 | 200 | 404 | 72.9 | 731 | 128 | 89.5 | 198 | 339 |
| darinaparsin + perifosine | 82.0 | 99.3 | - | 180 | 221 | 129 | 32.0 | 137 | 251 | 96.8 | 187 | 85.9 | 18.4 | 95.4 | 38.9 |
| fludarabine + palbociclib | 1960 | 31.3 | - | 73.8 | 116 | 105 | 227 | 95.0 | 328 | 71.0 | 2510 | 148 | 656 | 116 | 36.7 |
| tamatinib + LFM-A13 | 146 | 139 | 69.0 | 101 | 140 | 84.9 | 110 | 346 | 129 | 445 | 74.4 | 138 | 53.0 | 144 | 131 |
| pazopanib + L-779450 | 724 | 187 | 66.9 | 158 | 101 | 119 | 111 | 137 | 112 | 47.1 | 215 | 108 | 397 | 223 | 68.3 |
| ruxolitinib + tamatinib | 125 | 366 | - | 110 | 53.8 | 138 | 233 | 305 | 86.8 | 147 | 260 | 240 | - | 159 | 258 |
| ruxolitinib + YM155 | 308 | 149 | - | 285 | 101 | 97.4 | 101 | 144 | 46.0 | 316 | 521 | 124 | 23.9 | 86.9 | 321 |
| fludarabine + LFM-A13 | 1690 | 18.9 | 2720 | 22.2 | 294 | 116 | 86.7 | 114 | 99.4 | 104 | 5650 | 104 | 475 | 177 | 18.9 |
| LFM-A13 + SU6656 | 76.7 | 38.7 | 160 | 17.1 | 213 | 150 | 96.6 | 398 | 156 | 189 | 108 | 151 | 42.1 | 260 | 78.0 |
| darinaparsin + MK-2206 | 120 | 197 | - | 335 | 113 | 63.3 | 250 | 86.1 | 126 | 166 | 360 | 105 | 95.9 | 38.0 | 26.9 |
| ruxolitinib + fludarabine | 1950 | 351 | - | 120 | 134 | 66.6 | 108 | 147 | 99.1 | 254 | 1960 | 100 | 210 | 134 | 137 |
| SU6656 + palbociclib | 73.1 | 133 | - | 156 | 192 | 232 | 170 | 347 | 76.7 | 259 | 107 | 128 | - | 154 | 72.0 |
| AZD7762 + tamatinib | 53.2 | 88.8 | - | 84.0 | 82.4 | 1610 | 71.2 | 202 | 185 | 401 | 268 | 356 | - | 656 | 111 |
| SU6656 + AZD7762 | 131 | 224 | - | 414 | 113 | 56.7 | 326 | 150 | 1450 | 475 | 1030 | 480 | - | 529 | 243 |
| L-779450 + temozolomide | 340 | 223 | 269 | 94.2 | 52.4 | 133 | 98.9 | 74.5 | 163 | 102 | 166 | 101 | 254 | 181 | 148 |
| pazopanib + ruxolitinib | 149 | 79.5 | - | 154 | 193 | 99.3 | 59.8 | 76.2 | 157 | 250 | 208 | 102 | 13.8 | 150 | 122 |
| SU6656 + pazopanib | 71.4 | 156 | - | 53.5 | 94.8 | 83.7 | 62.1 | 63.6 | 92.9 | 124 | 166 | 116 | - | 301 | 183 |
| LFM-A13 + darinaparsin | - | 40.0 | - | 90.1 | 56.0 | 118 | 82.3 | - | 168 | 103 | 149 | 117 | 45.4 | 143 | - |

Some entries from above, unchanged:

Combination	SK-MEL-2	WM1716	501mel	MeWo	MEL-HO	LOX IMVI	C32	LB2518-MEL	WM115	COLO 792	WM3526	WM3619	A375	IST-MEL1	MZ2-MEL
fludarabine + palbociclib	1960	31.3	-	73.8	116	105	227	95.0	328	71.0	2510	148	656	116	36.7
SU6656 + AZD7762	131	224	-	414	113	56.7	326	150	1450	475	1030	480	-	529	243
SU6656 + pazopanib	71.4	156	-	53.5	94.8	83.7	62.1	63.6	92.9	124	166	116	-	301	183
ruxolitinib + tamatinib	125	366	-	110	53.8	138	233	305	86.8	147	260	240	-	159	258

From a melanoma drug combination screen (doi:10.1371/journal.pone.0140310); values rounded.